The list shows only some results of the screen, not a fair sample: it gathers tests that were run many times, whatever their T/C, doses with no T/C, and many T/C values between a quarter and a half above the control. Other doses and runs of a compound stand elsewhere. T/C: endpoint of the treated group in % of that of the vehicle group. Some doses have a count of surviving animals in place of a T/C: the source files T/C as zero there, which appears to mark a toxic dose or a test without result, not a measured value. Some survivor counts are full or nearly so, which does not show that the dose was tolerated: survival well below the control is almost never listed, so the zero probably covers shortened survival too. Counts of survivors are from the toxicity check (mostly the fifth day) where no day follows; animals may have died later. Schedules are NCI's codes, taken here to give the interval after Q, in days (D) or hours (H), and the number of doses after X. Some entries were tested several times; their values stand side by side, smallest first. For survival time, this PubChem deposit counts one and a half times the control or more as active, and values a quarter to a half above the control carry no call in these data; other NCI protocols may use other cut-offs. Counts like (3×) say how often a value occurs here. Some T/C values carry the count of animals alive at the toxicity check (mostly the fifth day); without a count, all were alive then.
Tested on: P388 leukemia ip, CD2F1 mice, survival T/C
Assay: NCI In Vivo Anticancer Drug Screen. Data for tumor model P388 Leukemia (intraperitoneal) in CD2F1 (CDF1) mice
Conditions: T/C endpoint: median survival time, higher T/C = longer survival
[1] = dose: 50.0 mg/kg/injection, schedule: Q01DX009 (ip), vehicle: saline with Tween-80
[2] = dose: 200.0 mg/kg/injection, schedule: Q01DX009 (ip), vehicle: saline with Tween-80
[3] = dose: 50.0 mg/kg/injection, schedule: Q01DX009 (ip), vehicle: distilled water + Tween-80
[4] = dose: 200.0 mg/kg/injection, schedule: Q01DX009 (ip), vehicle: distilled water + Tween-80
[5] = dose: 400.0 mg/kg/injection, schedule: Q01DX009 (ip), vehicle: distilled water + Tween-80
[6] = dose: 100.0 mg/kg/injection, schedule: Q01DX009 (ip), vehicle: saline with Tween-80
[7] = dose: 200.0 mg/kg/injection, schedule: Q01DX005 (ip), vehicle: saline
[8] = dose: 400.0 mg/kg/injection, schedule: Q01DX001 (ip), vehicle: Klucel (hydroxypropylcellulose) (HPC)
[9] = dose: 4.0 mg/kg/injection, schedule: Q01DX009 (ip), vehicle: saline + alcohol

With `CC(C)(c1ccccc1)c1cc(CN2CCCCC2)c(O)c(CN2CCCCC2)c1` the survivor count [1] was 5 of 6 and the survivor count [2] was 0 of 6.

With `Cc1ccc(Cl)cc1S(=O)(=O)Cl` the survivor count [3] was 2 of 6, the survivor count (dose: 100.0 mg/kg/injection, schedule: Q01DX009 (ip), vehicle: distilled water + Tween-80) was 0 of 6 and the survivor count [4] was 0 of 6. The survivor count [5] was 0 of 6.

With `CN(C)C1C(=O)C(C(N)=O)=C(O)C2(O)C(=O)C3=C(O)c4c(O)cccc4C(C)(O)C3CC12` (stereo not given) the survivor count (dose: 200.0 mg/kg/injection, schedule: Q01DX005 (ip), vehicle: Klucel (hydroxypropylcellulose) (HPC)) was 5 of 6.

For `CC1=NN(c2ccc(S(=O)(=O)O)cc2)C(=O)C1N=Nc1ccc(-c2ccc(N=Nc3ccc(O)c(C(=O)O)c3)c(C)c2)cc1C` (stereo not given), the T/C [1] was 89, 96, 105, 113 % of control, the survivor count [6] was 6 of 6 and the survivor count [2] was 2 of 6.

With `C[S+](C)CCCNC(=O)c1csc(-c2csc(N)n2)n1` the survivor count (dose: 50.0 mg/kg/injection, schedule: Q01DX005 (ip), vehicle: water) was 0 of 6, the survivor count (dose: 100.0 mg/kg/injection, schedule: Q01DX005 (ip), vehicle: water) was 0 of 6 and the survivor count (dose: 200.0 mg/kg/injection, schedule: Q01DX005 (ip), vehicle: water) was 0 of 6.

With `O=C1NC(=O)C2C3CCC(O3)C12` (stereo not given) the survivor count [7] was 0 of 6 and 2 of 6.

In the case of `COc1ccc2c(c1)[C@@]13CCCC[C@H]1[C@H](N(C)CC3)C21CC1`, the survivor count [8] is reported as 0 of 6.

In the case of `CCS/C(N)=C(\C#N)C(SCC)(SCC)SCC`, the survivor count (dose: 200.0 mg/kg/injection, schedule: Q04DX003 (ip), vehicle: saline) is reported as 0 of 6.

For `CCCCN1CSC2CCCCC21` (stereo not given), the T/C [7] was 130 % of control.

`O=[As](O)(O)c1ccc(Nc2nc(Cl)nc(Cl)n2)cc1` was tested, and the survivor count (dose: 50.0 mg/kg/injection, schedule: Q01DX009 (ip), vehicle: Klucel (hydroxypropylcellulose) (HPC)) was 5 of 6.

For `O=C(O)Cc1cccc2c(=O)cc(-c3ccccc3)oc12`, the T/C (dose: 30.0 mg/kg/injection, schedule: Q01DX009 (ip), vehicle: sodium bicarbonate, evaluated on day 30) was 103 and 119 % of control, the T/C (dose: 30.0 mg/kg/injection, schedule: Q01DX009 (ip), vehicle: sodium bicarbonate, evaluated on day 45) was 111, 126, 128 % of control (2×) and the T/C (dose: 30.0 mg/kg/injection, schedule: Q01DX009 (ip), vehicle: sodium bicarbonate, evaluated on day 60) was 121 % of control. The T/C (dose: 44.0 mg/kg/injection, schedule: Q01DX009 (ip), vehicle: sodium bicarbonate, evaluated on day 30) was 150 % of control, the T/C (dose: 44.0 mg/kg/injection, schedule: Q01DX009 (ip), vehicle: sodium bicarbonate, evaluated on day 45) was 122, 130, 137, 140, 141, 146, 147, 156 % of control and the T/C (dose: 44.0 mg/kg/injection, schedule: Q01DX009 (ip), vehicle: sodium bicarbonate, evaluated on day 60) was 120, 123, 134, 137 % of control. The T/C (dose: 67.0 mg/kg/injection, schedule: Q01DX005 (ip), vehicle: saline) was 137 % of control, the T/C (dose: 67.0 mg/kg/injection, schedule: Q01DX009 (ip), vehicle: saline, evaluated on day 30) was 119 % of control and the T/C (dose: 67.0 mg/kg/injection, schedule: Q01DX009 (ip), vehicle: saline, evaluated on day 44) was 217 % of control. The T/C (dose: 67.0 mg/kg/injection, schedule: Q01DX009 (ip), vehicle: saline, evaluated on day 45) was 153 % of control, the T/C (dose: 67.0 mg/kg/injection, schedule: Q01DX009 (ip), vehicle: saline, evaluated on day 60) was 147 % of control and the T/C (dose: 67.0 mg/kg/injection, schedule: Q01DX009 (ip), vehicle: sodium bicarbonate, evaluated on day 30) was 129 and 180 % of control. For the same compound, the T/C (dose: 67.0 mg/kg/injection, schedule: Q01DX009 (ip), vehicle: sodium bicarbonate, evaluated on day 45) was 153, 160, 161, 165, 169, 171, 176, 182, 195 % of control, the T/C (dose: 67.0 mg/kg/injection, schedule: Q01DX009 (ip), vehicle: sodium bicarbonate, evaluated on day 60) was 150, 174, 179, 180 % of control and the T/C (dose: 100.0 mg/kg/injection, schedule: Q01DX009 (ip), vehicle: saline, evaluated on day 20) was 118 % of control. For the same compound, the T/C (dose: 100.0 mg/kg/injection, schedule: Q01DX009 (ip), vehicle: saline, evaluated on day 30) was 112 % of control, the T/C (dose: 100.0 mg/kg/injection, schedule: Q01DX009 (ip), vehicle: saline, evaluated on day 44) was 95 % of control and the T/C (dose: 100.0 mg/kg/injection, schedule: Q01DX009 (ip), vehicle: saline, evaluated on day 45) was 171 % of control. The T/C (dose: 100.0 mg/kg/injection, schedule: Q01DX009 (ip), vehicle: saline, evaluated on day 60) was 174 % of control, the T/C (dose: 100.0 mg/kg/injection, schedule: Q01DX009 (ip), vehicle: sodium bicarbonate, evaluated on day 30) was 142 and 173 % of control and the T/C (dose: 100.0 mg/kg/injection, schedule: Q01DX009 (ip), vehicle: sodium bicarbonate, evaluated on day 45) was 167, 170, 174 (2×), 187, 190, 198, 215, 218 % of control. For the same compound, the T/C (dose: 100.0 mg/kg/injection, schedule: Q01DX009 (ip), vehicle: sodium bicarbonate, evaluated on day 60) was 176, 177, 193, 199 % of control, the T/C (dose: 134.0 mg/kg/injection, schedule: Q04DX002 (ip), vehicle: sodium bicarbonate) was 127 % of control and the T/C (dose: 150.0 mg/kg/injection, schedule: Q01DX009 (ip), vehicle: saline, evaluated on day 30) was 98 % of control [9 of 10 alive]. For the same compound, the T/C (dose: 150.0 mg/kg/injection, schedule: Q01DX009 (ip), vehicle: saline, evaluated on day 45) was 102 % of control [9 of 10 alive], the T/C (dose: 150.0 mg/kg/injection, schedule: Q01DX009 (ip), vehicle: saline, evaluated on day 60) was 98 % of control [8 of 10 alive] and the survivor count (dose: 150.0 mg/kg/injection, schedule: Q01DX009 (ip), vehicle: saline) was 6 of 6. The T/C (dose: 150.0 mg/kg/injection, schedule: Q01DX009 (ip), vehicle: sodium bicarbonate, evaluated on day 30) was 103 and 149 % of control, the T/C (dose: 150.0 mg/kg/injection, schedule: Q01DX009 (ip), vehicle: sodium bicarbonate, evaluated on day 45) was 182 [9 of 10 alive], 186 (3×), 195, 196, 208, 215, 228 % of control and the T/C (dose: 150.0 mg/kg/injection, schedule: Q01DX009 (ip), vehicle: sodium bicarbonate, evaluated on day 60) was 195, 202, 205, 210 % of control. For the same compound, the T/C (dose: 175.0 mg/kg/injection, schedule: Q01DX009 (ip), vehicle: sodium bicarbonate, evaluated on day 45) was 99, 100, 118, 185, 205 % of control, the T/C (dose: 175.0 mg/kg/injection, schedule: Q01DX009 (ip), vehicle: sodium bicarbonate, evaluated on day 60) was 161 % of control and the survivor count (dose: 200.0 mg/kg/injection, schedule: Q01DX009 (ip), vehicle: saline) was 2 of 6 and 3 of 6. The T/C (dose: 200.0 mg/kg/injection, schedule: Q04DX002 (ip), vehicle: sodium bicarbonate) was 134 % of control.

For `N#Cc1ccc(NC(=O)Nc2nccs2)cc1`, the T/C (dose: 25.0 mg/kg/injection, schedule: Q01DX009 (ip), vehicle: distilled water + Tween-80) was 127 % of control (2×), the T/C [3] was 127, 128, 132 % of control and the survivor count [4] was 0 of 6 and 3 of 6. The survivor count [5] was 0 of 6.

In the case of `COC(=O)[C@@]12OC[C@]34[C@H]([C@@H](O)[C@@H]1O)[C@@]1(C)CC(=O)C(O)=C(C)[C@@H]1C[C@H]3OC(=O)[C@H](OC(=O)/C=C(\C)C(C)CO)[C@@H]24` (stereo not given in full), the T/C (dose: 0.5 mg/kg/injection, schedule: Q01DX009 (ip), vehicle: saline + alcohol) is reported as 143 % of control, the T/C (dose: 2.0 mg/kg/injection, schedule: Q01DX009 (ip), vehicle: saline + alcohol) is reported as 126 and 145 % of control and the T/C [9] is reported as 130 % of control [4 of 6 alive]. For the same compound, the survivor count [9] was 2 of 6.

With `c1ccc(C23CC2COP3(c2ccccc2)(c2ccccc2)c2ccccc2)cc1` (stereo not given) the survivor count (dose: 50.0 mg/kg/injection, schedule: Q01DX009 (ip), vehicle: olive oil, sesame oil, peanut oil) was 0 of 6, the survivor count (dose: 100.0 mg/kg/injection, schedule: Q01DX009 (ip), vehicle: olive oil, sesame oil, peanut oil) was 1 of 6 and the survivor count (dose: 200.0 mg/kg/injection, schedule: Q01DX009 (ip), vehicle: olive oil, sesame oil, peanut oil) was 0 of 6.

With `Cn1nnnc1N/N=C(\Br)c1ccccc1` the T/C [6] was 127 % of control.

`Cc1ccc(S(=O)(=O)NCC(CNS(=O)(=O)c2ccc(C)cc2)C(C)(C)C)cc1` was tested, and the survivor count [8] was 6 of 6.

From PubChem BioAssay AID330 (DTP/NCI, 2004)
